Data published in PubChem BioAssay AID1259354 (Paczesny and Yang Labs, IUPUI and University of Michigan, 2018).
In all, about 78,000 compounds went through this assay and about 1,800 (2.3%) were called active. The inconclusive results got no clear call from the source; some entries with a clear call stand among them for comparison. Cut-off read from the data, not from the text of the source: active = inhibition above about 30%; inconclusive = mostly about 10% to 28%; inactive = weaker than that.

The chains behind the UniProt entries cited, without tags or fusion partners. Where a name states a change or a piece, a line headed by the entry shows the natural chain unless it says otherwise.
UniProt Q01638: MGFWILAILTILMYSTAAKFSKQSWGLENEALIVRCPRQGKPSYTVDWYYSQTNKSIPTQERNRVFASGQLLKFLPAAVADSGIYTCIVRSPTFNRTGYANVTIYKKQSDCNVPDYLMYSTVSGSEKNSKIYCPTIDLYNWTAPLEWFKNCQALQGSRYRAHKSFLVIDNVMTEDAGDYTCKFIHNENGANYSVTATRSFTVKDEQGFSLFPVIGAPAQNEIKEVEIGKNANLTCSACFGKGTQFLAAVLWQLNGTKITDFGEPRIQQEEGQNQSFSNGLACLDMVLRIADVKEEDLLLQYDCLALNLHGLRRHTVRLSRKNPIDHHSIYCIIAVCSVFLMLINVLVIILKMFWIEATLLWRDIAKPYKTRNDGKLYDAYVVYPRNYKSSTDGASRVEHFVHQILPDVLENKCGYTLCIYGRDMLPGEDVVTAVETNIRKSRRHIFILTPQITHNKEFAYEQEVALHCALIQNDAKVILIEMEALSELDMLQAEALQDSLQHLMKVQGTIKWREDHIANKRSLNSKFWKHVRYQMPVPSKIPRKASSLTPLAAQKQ

Each compound was assayed against Interleukin-1 receptor-like 1 (Homo sapiens) (UniProt Q01638) (assay: blocks human ST2 binding to IL-33, primary screen, biochemical, AlphaLISA (AID 1259354)). Settings: AlphaLISA ST2-Fc/biotin-IL-33 interaction, 1 h; at 17 µM, active compounds read high.
With `CC(c1ccccn1)N(C)Cc1ccc(F)cc1Cl` (stereo unspecified) the inhibition was inconclusive: 29%.
For `CC1=C(C(=O)Nc2ccccc2)C(c2cccc([N+](=O)[O-])c2)n2nnnc2N1` (stereo unspecified), the inhibition was inconclusive: 14%.
For `CCCOC(=O)CSC1=C(C#N)C(c2ccc(OCC)cc2)CC(=O)N1` (stereo unspecified), the inhibition was “inactive”.
In the case of `N#C/C(=C\Nc1ccccc1F)c1nc(-c2cc3cc(Br)ccc3oc2=O)cs1`, the inhibition is reported as inconclusive: 10%.
With `COc1ccc2[nH]c(CN3CCCC(OCc4ccccn4)C3)c(C)c2c1` (stereo unspecified) the inhibition was inconclusive: 10%.
For `CN(Cc1ccccc1)c1nc2c(c(=O)n(C)c(=O)n2C)n1CCSc1ncccn1`, the inhibition was inconclusive: 12%.
For `COc1cc(OC)cc(-n2c(=O)c3sccc3n(CC(=O)C(C)(C)C)c2=O)c1`, the inhibition was inconclusive: 17%.
For `Cc1ccc(-n2c(SCC(=O)Nc3ccc(F)cc3)nc3c(c2=O)SCC3)cc1`, the inhibition was inconclusive: 19%.
In the case of `Cc1c(CN2CCCC(CCC(=O)Nc3ccccc3F)C2)[nH]c2c(C)cccc12` (stereo unspecified), the inhibition is reported as “inactive”.
For `CCOc1ccc(C(C)=O)cc1CN(CC)CC`, the inhibition was inconclusive: 15%.
For `C=CCN1C(=O)/C(=C/c2ccccc2)SC1=Nc1cccc([N+](=O)[O-])c1`, the inhibition was active: 47%.
`CC(C)C1CN(Cc2cc(-c3ccccn3)no2)CCCN1CC1CC1` (stereo unspecified) was tested, and the inhibition was inconclusive: 22%.
In the case of `CCOc1cc(Br)cc(C=O)c1O`, the inhibition is reported as “inactive”.
`CCC1Oc2ccc(Cl)cc2N(C(C)C(=O)NCC2CCCO2)C1=O` (stereo unspecified) was tested, and the inhibition was “inactive”.
With `CC(=O)N1CC[C@H](c2nnc(-c3ccc(Cl)cc3)o2)C1` the inhibition was inconclusive: 21%.
For `Cc1ccc(Oc2ncccc2CNc2ncccc2Cl)cn1`, the inhibition was “inactive”.
For `Cc1ccc(CN2CCCN(CC(=O)NC(C)CCc3ccccc3)S2(=O)=O)cc1` (stereo unspecified), the inhibition was “inactive”.
`Cc1nn(-c2ccc(F)cc2)c(C)c1C(=O)N1CCN2CCNC(=O)C2C1` (stereo unspecified) was tested, and the inhibition was “inactive”.
`Cc1ccc(-c2c(C#N)c(N)nc3c2CCCCCC3)cc1` was tested, and the inhibition was “inactive”.
With `COC(=O)c1ccccc1NC(=O)NCCc1nc2cccnc2n1C1CCCCC1` the inhibition was inconclusive: 13%.
With `Clc1ccccc1Nc1ncnc2ccc(Br)cc12` the inhibition was “inactive”.
With `CN(CC(=O)N1CCN(c2cccc(Cl)c2)CC1)S(=O)(=O)c1ccc2c(c1)CCC(=O)N2` the inhibition was “inactive”.
In the case of `CC(=O)c1ccc(NC(=O)O[C@@H]2CO[C@H]3[C@@H]2OC[C@@H]3NC(=O)NC2CCCCC2)cc1`, the inhibition is reported as “inactive”.
`O=C(Cn1ccnc1)N1CCCC(CCc2ccc(F)cc2)C1` (stereo unspecified) was tested, and the inhibition was inconclusive: 11%.
In the case of `COCc1nc(N(C)Cc2cnn(-c3ccc(F)cc3)c2)c2cnn(C)c2n1`, the inhibition is reported as “inactive”.
In the case of `CC1(C)CC(=O)N(CC(=O)NC2CCCCCC2)c2ccccc2S1`, the inhibition is reported as inconclusive: 10%.
With `CCn1cc(C(=O)NCCCN2CCCC2)c2cc(OC)c(OC)cc2c1=O` the inhibition was inconclusive: 21%.
With `CC(c1ccccn1)N(C)Cc1ccc(-c2ccccn2)cc1` (stereo unspecified) the inhibition was inconclusive: 15%.
In the case of `O=C(CN1C(=O)c2cccnc2Sc2ccccc21)NCCc1ccco1`, the inhibition is reported as inconclusive: 12%.
With `O=c1oc2ccccc2cc1-c1csc(Nc2ccccc2)n1` the inhibition was inconclusive: 12%.
In the case of `COc1ccc(CNC(=O)NCCCn2c(-c3ccncc3)nc3cccnc32)cc1`, the inhibition is reported as inconclusive: 16%.
`Nc1ccc2nc(/C=C/c3ccc(Cl)cc3)[nH]c2c1` was tested, and the inhibition was inconclusive: 10%.
With `O=S(=O)(Cc1ccccc1)NCc1nc2cccnc2n1Cc1ccccc1` the inhibition was “inactive”.
For `CC(=O)N1c2ccccc2NC2=C(C(=O)CCC2)C1c1cccc(Br)c1` (stereo unspecified), the inhibition was inconclusive: 10%.
With `CCN(CC)CC#CC(C)(O)C(C)C` (stereo unspecified) the inhibition was inconclusive: 12%.
In the case of `COc1ccc(C2C(C(N)=O)=C(C)Nc3ncnn32)cc1OC` (stereo unspecified), the inhibition is reported as “inactive”.
In the case of `O=C(Cn1c(=O)[nH]c2ccsc2c1=O)NC1CCCCCCC1`, the inhibition is reported as “inactive”.
In the case of `CCOC(=O)c1[nH]c(C)c(C(=O)N(C)CC2CCN(CCc3ccc(F)cc3)CC2)c1C`, the inhibition is reported as inconclusive: 16%.
In the case of `Cc1cc(CN(C)C(=O)C2CCN(c3nc(C)c4cc(C(C)C)ccc4n3)CC2)on1`, the inhibition is reported as “inactive”.
With `COc1ccc(NC(=O)CSc2nc(N)nc(SC)c2C#N)cc1` the inhibition was inconclusive: 12%.
In the case of `CO[C@H]1CN(C(C)C)C[C@@H]1NC(=O)c1cccc(NCc2ccccn2)c1C`, the inhibition is reported as inconclusive: 10%.
`CC(C)CCn1cnc2c(cnn2-c2ccc(F)cc2)c1=O` was tested, and the inhibition was inconclusive: 19%.
For `O=C(O)c1ccc(NC(=O)C2CCCCC2C(=O)O)cc1` (stereo unspecified), the inhibition was “inactive”.
In the case of `CC(C)CCNc1ncnc2c1sc1nc(N3CCOCC3)c3c(c12)CC(C)(C)OC3`, the inhibition is reported as inconclusive: 11%.
For `c1ccc(-c2cn3ccsc3n2)cc1`, the inhibition was inconclusive: 10%.
`NC(=O)c1oc2ccccc2c1NC(=O)c1nc2ccccc2s1` was tested, and the inhibition was inconclusive: 12%.
With `CC(=O)NCc1cccc(-c2ccc(-n3cccn3)cc2)c1` the inhibition was inconclusive: 10%.
For `c1ccc(CNc2cc(-c3ccc(-n4cnnc4)nc3)c3cc[nH]c3n2)nc1`, the inhibition was inconclusive: 23%.
For `CCn1c(C2CCN(C(=O)Cc3nonc3C)CC2)nn(C)c1=O`, the inhibition was “inactive”.
In the case of `Cc1cc(Nc2cccc([N+](=O)[O-])c2)nc(-c2ccccc2O)n1`, the inhibition is reported as inconclusive: 10%.
In the case of `COc1cc(OC)c(C=Nc2ccc([N+](=O)[O-])cc2)cc1Br`, the inhibition is reported as inconclusive: 10%.
For `COc1ccc(CN2C[C@H](O)C[C@H]2c2nc(Cc3ccccc3)no2)c(OC)c1OC`, the inhibition was inconclusive: 17%.
With `Cc1cccc2oc(-c3cc(N=Cc4ccccc4[N+](=O)[O-])ccc3O)nc12` the inhibition was inconclusive: 15%.
In the case of `CN(C)c1ncccc1CNC(=O)CCc1ccco1`, the inhibition is reported as inconclusive: 13%.
For `Cc1nc(CN(C)Cc2cccc(C(=O)Nc3cccnc3)c2)cs1`, the inhibition was inconclusive: 19%.
With `Cc1ccc(CCC(=O)Nc2ccc(C(F)(F)F)cc2)o1` the inhibition was inconclusive: 14%.
For `CC(NS(=O)(=O)c1ccc2c(c1)Cc1cc(S(=O)(=O)NC(C)C(=O)O)ccc1-2)C(=O)O` (stereo unspecified), the inhibition was inconclusive: 18%.
For `COC(=O)C1=C(N)OC2=C(C(=O)CC(c3ccccc3)C2)C1c1cccc(Cl)c1Cl` (stereo unspecified), the inhibition was inconclusive: 11%.
With `COc1ccc(Cl)cc1C(=O)Nc1ccc(-c2nc3ccccc3[nH]2)cc1` the inhibition was inconclusive: 19%.
For `Cc1ccc(C(N)=O)c(N2CCC(O)(CO)CC2)n1`, the inhibition was “inactive”.
`CCCCc1oc2ccccc2c1C(=O)c1cc(I)c(OCCN(CC)CC)c(I)c1` was tested, and the inhibition was inconclusive: 20%.
